Measurements taken from patent US9441014B2, “Skin permeating and cell entering (SPACE) peptides and methods of use thereof” (The Regents of the University of California, priority 2010, dated 2016).

Tested on: porcine skin
Assay: In vitro phage display screen for skin penetration (receiver compartment)
Conditions: five rounds of selection

Which “frequency of occurrence of sequence in phage display screen” value does the source give for “ACSTHFIDTCG (identified using phage display) [AC-STHFIDT-CG]” here?
Its value is “relatively high frequency in rounds 4 and 5”.

With “ACHSALTKHCG (identified using phage display) [AC-HSALTKH-CG]” as the sequence, how does the “frequency of occurrence of sequence in phage display screen” value read?
Its value is “high frequency”.
